In PMC9967848:
No constants are given. Whether binding was seen depends on the method and setting. In cells and extracts the contact can be indirect. Some results given as binding are weak or reduced against the parent protein; the word gives no strength.

Protein sequences, listed by entry. Tags and fused reporters are not part of them.
UniProt Q9P2J5: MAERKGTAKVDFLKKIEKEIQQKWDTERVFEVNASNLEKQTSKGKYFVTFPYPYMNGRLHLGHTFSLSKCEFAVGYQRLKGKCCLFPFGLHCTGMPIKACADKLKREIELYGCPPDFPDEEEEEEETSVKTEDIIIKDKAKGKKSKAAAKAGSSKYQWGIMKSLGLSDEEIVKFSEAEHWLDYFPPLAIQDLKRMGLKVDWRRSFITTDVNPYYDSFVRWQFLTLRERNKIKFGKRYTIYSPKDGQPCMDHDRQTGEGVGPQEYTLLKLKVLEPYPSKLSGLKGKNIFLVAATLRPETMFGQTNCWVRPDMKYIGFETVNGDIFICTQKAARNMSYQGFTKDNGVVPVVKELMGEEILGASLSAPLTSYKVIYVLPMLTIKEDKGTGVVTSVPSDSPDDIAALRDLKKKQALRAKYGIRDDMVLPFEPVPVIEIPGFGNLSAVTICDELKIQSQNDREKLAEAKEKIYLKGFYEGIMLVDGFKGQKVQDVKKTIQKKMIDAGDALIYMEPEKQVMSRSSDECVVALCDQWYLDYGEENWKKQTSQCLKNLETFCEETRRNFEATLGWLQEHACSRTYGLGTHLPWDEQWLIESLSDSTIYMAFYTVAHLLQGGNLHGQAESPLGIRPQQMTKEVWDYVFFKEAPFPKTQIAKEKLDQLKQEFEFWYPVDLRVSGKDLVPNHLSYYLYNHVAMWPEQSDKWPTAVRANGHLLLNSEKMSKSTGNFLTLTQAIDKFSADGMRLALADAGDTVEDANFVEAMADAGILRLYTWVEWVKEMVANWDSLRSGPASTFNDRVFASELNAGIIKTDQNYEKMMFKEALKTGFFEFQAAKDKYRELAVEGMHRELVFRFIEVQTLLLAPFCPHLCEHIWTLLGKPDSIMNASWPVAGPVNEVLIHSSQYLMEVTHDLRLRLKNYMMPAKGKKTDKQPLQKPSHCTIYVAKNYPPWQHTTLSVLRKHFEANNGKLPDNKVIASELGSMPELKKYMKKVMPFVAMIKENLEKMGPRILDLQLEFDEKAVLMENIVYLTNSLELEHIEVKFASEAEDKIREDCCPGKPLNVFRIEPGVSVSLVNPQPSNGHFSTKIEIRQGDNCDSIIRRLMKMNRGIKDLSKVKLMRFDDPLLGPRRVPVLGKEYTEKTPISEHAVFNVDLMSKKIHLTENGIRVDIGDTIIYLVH

B1: ARS-interacting multifunctional protein 3 (AIMP3/p18), endogenous (protein, UniProt O43324 1-174)
chain: MAAAAELSLLEKSLGLSKGNKYSAQGERQIPVLQTNNGPSLTGLTTIAAHLVKQANKEYLLGSTAEEKAIVQQWLEYRVTQVDGHSSKNDIHTLLKDLNSYLEDKVYLTGYNFTLADILLYYGLHRFIVDLTVQEKEKYLNVSRWFCHIQHYPGIRQHLSSVVFIKNRLYTNSH
B2: aspartyl-tRNA synthetase (DARS), endogenous (enzyme, UniProt P14868 1-501)
chain: MPSASASRKSQEKPREIMDAAEDYAKERYGISSMIQSQEKPDRVLVRVRDLTIQKADEVVWVRARVHTSRAKGKQCFLVLRQQQFNVQALVAVGDHASKQMVKFAANINKESIVDVEGVVRKVNQKIGSCTQQDVELHVQKIYVISLAEPRLPLQLDDAVRPEAEGEEEGRATVNQDTRLDNRVIDLRTSTSQAVFRLQSGICHLFRETLINKGFVEIQTPKIISAASEGGANVFTVSYFKNNAYLAQSPQLYKQMCICADFEKVFSIGPVFRAEDSNTHRHLTEFVGLDIEMAFNYHYHEVMEEIADTMVQIFKGLQERFQTEIQTVNKQFPCEPFKFLEPTLRLEYCEALAMLREAGVEMGDEDDLSTPNEKLLGHLVKEKYDTDFYILDKYPLAVRPFYTMPDPRNPKQSNSYDMFMRGEEILSGAQRIHDPQLLTERALHHGIDLEKIKAYIDSFRFGAPPHAGGGIGLERVTMLFLGLHNVRQTSMFPRDPKRLTP
B3: isoleucyl-tRNA synthetase (IARS), endogenous (enzyme, UniProt P41252 1-1262)
chain: MLQQVPENINFPAEEEKILEFWTEFNCFQECLKQSKHKPKFTFYDGPPFATGLPHYGHILAGTIKDIVTRYAHQSGFHVDRRFGWDCHGLPVEYEIDKTLGIRGPEDVAKMGITEYNNQCRAIVMRYSAEWKSTVSRLGRWIDFDNDYKTLYPQFMESVWWVFKQLYDKGLVYRGVKVMPFSTACNTPLSNFESHQNYKDVQDPSVFVTFPLEEDETVSLVAWTTTPWTLPSNLAVCVNPEMQYVKIKDVARGRLLILMEARLSALYKLESDYEILERFPGAYLKGKKYRPLFDYFLKCKENGAFTVLVDNYVKEEEGTGVVHQAPYFGAEDYRVCMDFNIIRKDSLPVCPVDASGCFTTEVTDFAGQYVKDADKSIIRTLKEQGRLLVATTFTHSYPFCWRSDTPLIYKAVPSWFVRVENMVDQLLRNNDLCYWVPELVREKRFGNWLKDARDWTISRNRYWGTPIPLWVSDDFEEVVCIGSVAELEELSGAKISDLHRESVDHLTIPSRCGKGSLHRISEVFDCWFESGSMPYAQVHYPFENKREFEDAFPADFIAEGIDQTRGWFYTLLVLATALFGQPPFKNVIVNGLVLASDGQKMSKRKKNYPDPVSIIQKYGADALRLYLINSPVVRAENLRFKEEGVRDVLKDVLLPWYNAYRFLIQNVLRLQKEEEIEFLYNENTVRESPNITDRWILSFMQSLIGFFETEMAAYRLYTVVPRLVKFVDILTNWYVRMNRRRLKGENGMEDCVMALETLFSVLLSLCRLMAPYTPFLTELMYQNLKVLIDPVSVQDKDTLSIHYLMLPRVREELIDKKTESAVSQMQSVIELGRVIRDRKTIPIKYPLKEIVVIHQDPEALKDIKSLEKYIIEELNVRKVTLSTDKNKYGIRLRAEPDHMVLGKRLKGAFKAVMTSIKQLSSEELEQFQKTGTIVVEGHELHDEDIRLMYTFDQATGGTAQFEAHSDAQALVLLDVTPDQSMVDEGMAREVINRIQKLRKKCNLVPTDEITVYYKAKSEGTYLNSVIESHTEFIFTTIKAPLKPYPVSPSDKVLIQEKTQLKGSELEITLTRGSSLPGPACAYVNLNICANGSEQGGVLLLENPKGDNRLDLLKLKSVVTSIFGVKNTELAVFHDETEIQNQTDLLSLSGKTLCVTAGSAPSLINSSSTLLCQYINLQLLNAKPQECLMGTVGTLLLENPLGQNGLTHQGLLYEAAKVFGLRSRKLKLFLNETQTQEITEDIPVKTLNMKTVYVSVLPTTADF
B4: ARS-interacting multifunctional protein 1 (AIMP1/p43), endogenous (protein, UniProt Q12904 1-312)
chain: MANNDAVLKRLEQKGAEADQIIEYLKQQVSLLKEKAILQATLREEKKLRVENAKLKKEIEELKQELIQAEIQNGVKQIPFPSGTPLHANSMVSENVIQSTAVTTVSSGTKEQIKGGTGDEKKAKEKIEKKGEKKEKKQQSIAGSADSKPIDVSRLDLRIGCIITARKHPDADSLYVEEVDVGEIAPRTVVSGLVNHVPLEQMQNRMVILLCNLKPAKMRGVLSQAMVMCASSPEKIEILAPPNGSVPGDRITFDAFPGEPDKELNPKKKIWEQIQPDLHTNDECVATYKGVPFEVKGKGVCRAQTMSNSGIK
B5: glutaminyl-tRNA synthetase (QARS), endogenous (enzyme, UniProt P47897 1-775)
chain: MAALDSLSLFTSLGLSEQKARETLKNSALSAQLREAATQAQQTLGSTIDKATGILLYGLASRLRDTRRLSFLVSYIASKKIHTEPQLSAALEYVRSHPLDPIDTVDFERECGVGVIVTPEQIEEAVEAAINRHRPQLLVERYHFNMGLLMGEARAVLKWADGKMIKNEVDMQVLHLLGPKLEADLEKKFKVAKARLEETDRRTAKDVVENGETADQTLSLMEQLRGEALKFHKPGENYKTPGYVVTPHTMNLLKQHLEITGGQVRTRFPPEPNGILHIGHAKAINFNFGYAKANNGICFLRFDDTNPEKEEAKFFTAICDMVAWLGYTPYKVTYASDYFDQLYAWAVELIRRGLAYVCHQRGEELKGHNTLPSPWRDRPMEESLLLFEAMRKGKFSEGEATLRMKLVMEDGKMDPVAYRVKYTPHHRTGDKWCIYPTYDYTHCLCDSIEHITHSLCTKEFQARRSSYFWLCNALDVYCPVQWEYGRLNLHYAVVSKRKILQLVATGAVRDWDDPRLFTLTALRRRGFPPEAINNFCARVGVTVAQTTMEPHLLEACVRDVLNDTAPRAMAVLESLRVIITNFPAAKSLDIQVPNFPADETKGFHQVPFAPIVFIERTDFKEEPEPGFKRLAWGQPVGLRHTGYVIELQHVVKGPSGCVESLEVTCRRADAGEKPKAFIHWVSQPLMCEVRLYERLFQHKNPEDPTEVPGGFLSDLNLASLHVVDAALVDCSVALAKPFDKFQFERLGYFSVDPDSHQGKLVFNRTVTLKEDPGKV
B6: ARS-interacting multifunctional protein 2 (AIMP2/p38), endogenous (protein, UniProt Q13155 1-320)
chain: MPMYQVKPYHGGGAPLRVELPTCMYRLPNVHGRSYGPAPGAGHVQEESNLSLQALESRQDDILKRLYELKAAVDGLSKMIQTPDADLDVTNIIQADEPTTLTTNALDLNSVLGKDYGALKDIVINANPASPPLSLLVLHRLLCEHFRVLSTVHTHSSVKSVPENLLKCFGEQNKKQPRQDYQLGFTLIWKNVPKTQMKFSIQTMCPIEGEGNIARFLFSLFGQKHNAVNATLIDSWVDIAIFQLKEGSSKEKAAVFRSMNSALGKSPWLAGNELTVADVVLWSVLQQIGGCSVTVPANVQRWMRSCENLAPFNTALKLLK
B7: arginyl-tRNA synthetase (RARS), endogenous (enzyme, UniProt P54136 1-660)
chain: MDVLVSECSARLLQQEEEIKSLTAEIDRLKNCGCLGASPNLEQLQEENLKLKYRLNILRKSLQAERNKPTKNMINIISRLQEVFGHAIKAAYPDLENPPLLVTPSQQAKFGDYQCNSAMGISQMLKTKEQKVNPREIAENITKHLPDNECIEKVEIAGPGFINVHLRKDFVSEQLTSLLVNGVQLPALGENKKVIVDFSSPNIAKEMHVGHLRSTIIGESISRLFEFAGYDVLRLNHVGDWGTQFGMLIAHLQDKFPDYLTVSPPIGDLQVFYKESKKRFDTEEEFKKRAYQCVVLLQGKNPDITKAWKLICDVSRQELNKIYDALDVSLIERGESFYQDRMNDIVKEFEDRGFVQVDDGRKIVFVPGCSIPLTIVKSDGGYTYDTSDLAAIKQRLFEEKADMIIYVVDNGQSVHFQTIFAAAQMIGWYDPKVTRVFHAGFGVVLGEDKKKFKTRSGETVRLMDLLGEGLKRSMDKLKEKERDKVLTAEELNAAQTSVAYGCIKYADLSHNRLNDYIFSFDKMLDDRGNTAAYLLYAFTRIRSIARLANIDEEMLQKAARETKILLDHEKEWKLGRCILRFPEILQKILDDLFLHTLCDYIYELATAFTEFYDSCYCVEKDRQTGKILKVNMWRMLLCEAVAAVMAKGFDILGIKPVQRM
B8: methionyl-tRNA synthetase (MARS), endogenous (enzyme, UniProt P56192 1-900)
chain: MRLFVSDGVPGCLPVLAAAGRARGRAEVLISTVGPEDCVVPFLTRPKVPVLQLDSGNYLFSTSAICRYFFLLSGWEQDDLTNQWLEWEATELQPALSAALYYLVVQGKKGEDVLGSVRRALTHIDHSLSRQNCPFLAGETESLADIVLWGALYPLLQDPAYLPEELSALHSWFQTLSTQEPCQRAAETVLKQQGVLALRPYLQKQPQPSPAEGRAVTNEPEEEELATLSEEEIAMAVTAWEKGLESLPPLRPQQNPVLPVAGERNVLITSALPYVNNVPHLGNIIGCVLSADVFARYSRLRQWNTLYLCGTDEYGTATETKALEEGLTPQEICDKYHIIHADIYRWFNISFDIFGRTTTPQQTKITQDIFQQLLKRGFVLQDTVEQLRCEHCARFLADRFVEGVCPFCGYEEARGDQCDKCGKLINAVELKKPQCKVCRSCPVVQSSQHLFLDLPKLEKRLEEWLGRTLPGSDWTPNAQFITRSWLRDGLKPRCITRDLKWGTPVPLEGFEDKVFYVWFDATIGYLSITANYTDQWERWWKNPEQVDLYQFMAKDNVPFHSLVFPCSALGAEDNYTLVSHLIATEYLNYEDGKFSKSRGVGVFGDMAQDTGIPADIWRFYLLYIRPEGQDSAFSWTDLLLKNNSELLNNLGNFINRAGMFVSKFFGGYVPEMVLTPDDQRLLAHVTLELQHYHQLLEKVRIRDALRSILTISRHGNQYIQVNEPWKRIKGSEADRQRAGTVTGLAVNIAALLSVMLQPYMPTVSATIQAQLQLPPPACSILLTNFLCTLPAGHQIGTVSPLFQKLENDQIESLRQRFGGGQAKTSPKPAVVETVTTAKPQQIQALMDEVTKQGNIVRELKAQKADKNEVAAEVAKLLDLKKQLAVAEGKPPEAPKGKKKK

Target: FLAG-tagged HIV-1 MA (HIV-1) (UniProt P12493)
Experiment: co-IP

Row | Molecule | binding
1 | lysyl-tRNA synthetase (LysRS, KARS), endogenous (from UniProt Q15046 1-597) (enzyme) | binds
2 | leucyl-tRNA synthetase (LARS), endogenous (from UniProt Q9P2J5 1-1176) (enzyme) | binds
3 | B1 | binds
4 | B2 | binds
5 | B3 | binds
6 | B4 | binds
7 | B5 | binds
8 | B6 | binds
9 | B7 | binds
10 | B8 | binds
